Assay results from PubChem BioAssay AID587 (National Center for Advancing Translational Sciences (NCATS), 2007).
The whole screen tested about 59,000 compounds, of which about 35 (0.06%) were called active. This list was built around the results that the source calls inconclusive (neither active nor inactive); the mix of calls is not that of the screen. Cut-off read from the data, not from the text of the source: active = max dye-equivalent concentration above about 10 nM; inconclusive = between about 1.1 nM and that limit; inactive = weaker than that.

Assay: qHTS Assay for Spectroscopic Profiling in Texas Red Spectral Region
Settings: Compound fluorescence, Texas Red channel, 547/618 nm; hits give high values
Method in brief: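 Dye-equivalent concentrations come from scaling compound signal (ex 547, em 618 nm) to six Texas Red standard concentrations run on every plate, after 15 min room-temperature incubation in pH 8.0 Tris (100 mM).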

Row | SMILES | max dye-equivalent concentration
1 | COC(=O)[C@@H](NC(=O)N(C1CCCCC1)C1CCCCC1)C(C)C | inconclusive: 1.3 nM
2 | COc1ccc2c(c1)CCCC21NC(=O)NC1=O (stereo unspecified) | inconclusive: 2.1 nM
3 | CCC(C)NC(=O)CC(c1ccc(OC)cc1)n1cccc1 (stereo unspecified) | inactive
4 | Cc1nc2ccccn2c1/C(O)=C1\C(=O)C(=O)N(CCN2CCOCC2)C1c1ccncc1 (stereo unspecified) | inconclusive: 1.5 nM
5 | CCOC(=O)CSc1nnc(CNC(=O)c2ccc(S(=O)(=O)N3CCCCC3)cc2)n1C | inconclusive: 1.6 nM
6 | COC(=O)C1=C(C)Nc2c(c(=O)n(C)c(=O)n2C)C1c1cccs1 (stereo unspecified) | inconclusive: 1.3 nM
7 | CC(Oc1ccc(Cl)cc1Cl)c1nc(-c2ccc(NC(=O)c3cccnc3)cc2)no1 (stereo unspecified) | inconclusive: 1.1 nM
8 | CCOC(=O)N1CCN(C(=O)c2ccc3nc(N4CCCCC4)sc3c2)CC1 | inconclusive: 2 nM
9 | Cc1nc(N2CCN(c3ccccc3)CC2)nc2c1C(=O)CCC2 | inconclusive: 1.4 nM
10 | Cc1ccc(C(=O)OCC(=O)Nc2ccc3c(c2)OCO3)o1 | inconclusive: 1.7 nM
11 | COC(=O)C1=C(N)Oc2cc(C)n(Cc3cccnc3)c(=O)c2C1c1cccc(OC)c1OC (stereo unspecified) | inconclusive: 1.2 nM
12 | Cc1nc2c(nnn2Cc2ccccc2)c(=O)n1-c1ccccc1 | inconclusive: 1.6 nM
13 | Clc1ccc2nc(SCc3nnc(-c4ccccc4)o3)[nH]c2c1 | inconclusive: 1.2 nM
14 | Cc1ccc(NC(=O)C2CCCN2S(=O)(=O)c2ccc(F)cc2)c(C)c1 (stereo unspecified) | inconclusive: 2.1 nM
15 | Cn1nnc(NCc2cc(Br)ccc2OCc2cccs2)n1 | inactive
16 | CCCCCc1c(C)nc(N2CCc3ccccc32)[nH]c1=O | inconclusive: 1.5 nM
17 | CN(C)c1ncc2nc(-c3cccs3)c(=O)n(CCc3ccccc3)c2n1 | inconclusive: 1.2 nM
18 | COc1ccccc1C1CC(c2ccccc2)Nc2ncnn21 (stereo unspecified) | inconclusive: 1.5 nM
19 | Cc1ccc(S(=O)(=O)c2cc3c(=O)n4ccccc4nc3n(Cc3ccco3)c2=N)cc1 | inconclusive: 1.8 nM

Row | SMILES | max dye-equivalent concentration
20 | O=C(CCCn1c(=O)c2sccc2n(Cc2ccc(F)cc2)c1=O)NCc1ccco1 | inconclusive: 1.3 nM
21 | CCN1C(=O)N(CN2CCOCC2)C2C1N(CN1CCOCC1)C(=O)N2CC (stereo unspecified) | inconclusive: 1.1 nM
22 | CCOc1ccc2nc(NC(=O)c3cnccn3)sc2c1 | inconclusive: 1.1 nM
23 | CCCC(C(=O)OCCN(CC)CC)(c1ccccc1)c1ccccc1 | inconclusive: 1.2 nM
24 | O=c1c(-c2cc(F)cc(F)c2)nc2cnc(Oc3ccccc3)nc2n1C[C@H]1CCCO1 | inactive
25 | Cc1ccc(-c2nc(-c3cccnc3)no2)c(C)c1 | inconclusive: 2.6 nM
26 | Cc1ccc2[nH]c(=O)c(CN(CC3CCCO3)S(=O)(=O)c3c(C)ccc4nsnc34)cc2c1 (stereo unspecified) | inconclusive: 1.6 nM
27 | CC1(C)Oc2ccc(C(=O)N3CCOCC3)cc2N(CC(=O)Nc2ccccc2)C1=O | inconclusive: 2.1 nM
28 | C=C(C)n1c(=O)[nH]c2ccccc21 | inconclusive: 1.6 nM
29 | Clc1ccc2c(c1)CNc1c(ncnc1N1CCOCC1)O2 | inconclusive: 1.1 nM
30 | Cc1nc(CC(=O)Nc2nc(C(C)(C)C)cs2)cs1 | inconclusive: 1.2 nM
31 | O=c1[nH]c2cc(Cl)ccc2c(O)c1-c1ccc(Oc2ccccc2)cc1 | inconclusive: 1.3 nM
32 | Cc1cc(C)nc(Nc2n[nH]c(-c3ccccc3Br)n2)n1 | inconclusive: 1.1 nM
33 | COc1ccc(Cl)c(NC(=O)Cn2nnc(-c3ccccc3N)n2)c1 | inactive
34 | CCCCNC(=O)C(C#N)c1nc2ccccc2nc1N1CCN(Cc2ccc3c(c2)OCO3)CC1 (stereo unspecified) | inactive
35 | CCOC(=O)C1CCCN(Cc2nc(N)nc(Nc3ccc(OC)cc3)n2)C1 (stereo unspecified) | inconclusive: 1.3 nM
36 | O=C1CCCN1C(=O)CCC(=O)N1CCCC1=O | inconclusive: 1.5 nM
37 | Cc1ccc(SCCN2C(=O)NC(C)(C)C2=O)cc1 | inconclusive: 1.5 nM
38 | C=CCNc1nc(N)c(C(=O)Nc2cc(C)on2)s1 | inactive

Row | SMILES | max dye-equivalent concentration
39 | CCc1ccc(NC(=O)CSc2nc3ccccc3c(=O)n2CCN2CCOCC2)cc1 | inconclusive: 2 nM
40 | c1csc(-c2cnc3n2CCCC3)c1 | inconclusive: 1.7 nM
41 | CCn1c(N)c(C(N)=O)sc1=S | inconclusive: 1.4 nM
42 | COc1ccc(CCNC(=O)c2ccc(=O)[nH]n2)cc1OC | inconclusive: 1.1 nM
43 | CCS(=O)(=O)c1ccc(NC(=O)c2ccccc2Cl)c(O)c1 | inconclusive: 1.3 nM
44 | CCn1c(SCc2cccc(C(F)(F)F)c2)nnc1-c1ccco1 | inconclusive: 2 nM
45 | NC(=O)C1CCCN(C(=O)NC2CCCCC2)C1 (stereo unspecified) | inconclusive: 1.6 nM
46 | Cn1cccc1C(=O)N1CCC[C@@]2(CCN(c3ccccc3)C2)C1 | inactive
47 | CCN(C(=O)CSc1nnc(-c2ccccc2Cl)n1C1CCCC1)C1CCS(=O)(=O)C1 (stereo unspecified) | inconclusive: 1.5 nM
48 | Cc1c(NC(=O)Cn2cnc3c(=O)n(C)c(=O)n(C)c32)cccc1-c1nc2ccccc2o1 | inconclusive: 1.1 nM
49 | CCN(CC)S(=O)(=O)c1cccc2nsnc12 | inconclusive: 1.2 nM
50 | Cc1ccc(S(=O)(=O)NCCC(=O)NCc2ccccc2)cc1 | inconclusive: 1.8 nM
51 | CCCCOc1ccc(NC2=NC3(CCCCC3)N=C(N)N2)cc1 | inconclusive: 2.3 nM
52 | CC(=O)Nc1c(C#N)c(C(C)(C)C)cn1C | inconclusive: 1.1 nM
53 | O=C(CCN1C(=O)c2ccccc2C1=O)Nc1ccc(F)cc1F | inconclusive: 1.6 nM
54 | N#Cc1ccc(CN2CCCC3(CCNCC3)C2)cc1 | inactive
55 | CCCCN(CC)S(=O)(=O)N1CCC(C(=O)NCCCN2CCOCC2)CC1 | inconclusive: 2.2 nM
56 | O=C(CSc1ccc(Cl)cc1)OCc1nnc(-c2ccccc2)o1 | inconclusive: 1.5 nM

Ordered by molecular weight (descending): part of the list above
Row | SMILES | max dye-equivalent concentration
53 | O=C(CCN1C(=O)c2ccccc2C1=O)Nc1ccc(F)cc1F | inconclusive: 1.6 nM
45 | NC(=O)C1CCCN(C(=O)NC2CCCCC2)C1 (stereo unspecified) | inconclusive: 1.6 nM
52 | CC(=O)Nc1c(C#N)c(C(C)(C)C)cn1C | inconclusive: 1.1 nM
40 | c1csc(-c2cnc3n2CCCC3)c1 | inconclusive: 1.7 nM
